Measurements reported in US20150259408A1.
Results are given in words; binding and its absence hold for the method and conditions named. Some entries that bind do so weakly or less than the wild type.

By UniProt entry, the sequences of proteins in these tests, tags left out. Where a name states a change or a piece, a line headed by the entry shows the natural chain unless it says otherwise.
UniProt Q16363: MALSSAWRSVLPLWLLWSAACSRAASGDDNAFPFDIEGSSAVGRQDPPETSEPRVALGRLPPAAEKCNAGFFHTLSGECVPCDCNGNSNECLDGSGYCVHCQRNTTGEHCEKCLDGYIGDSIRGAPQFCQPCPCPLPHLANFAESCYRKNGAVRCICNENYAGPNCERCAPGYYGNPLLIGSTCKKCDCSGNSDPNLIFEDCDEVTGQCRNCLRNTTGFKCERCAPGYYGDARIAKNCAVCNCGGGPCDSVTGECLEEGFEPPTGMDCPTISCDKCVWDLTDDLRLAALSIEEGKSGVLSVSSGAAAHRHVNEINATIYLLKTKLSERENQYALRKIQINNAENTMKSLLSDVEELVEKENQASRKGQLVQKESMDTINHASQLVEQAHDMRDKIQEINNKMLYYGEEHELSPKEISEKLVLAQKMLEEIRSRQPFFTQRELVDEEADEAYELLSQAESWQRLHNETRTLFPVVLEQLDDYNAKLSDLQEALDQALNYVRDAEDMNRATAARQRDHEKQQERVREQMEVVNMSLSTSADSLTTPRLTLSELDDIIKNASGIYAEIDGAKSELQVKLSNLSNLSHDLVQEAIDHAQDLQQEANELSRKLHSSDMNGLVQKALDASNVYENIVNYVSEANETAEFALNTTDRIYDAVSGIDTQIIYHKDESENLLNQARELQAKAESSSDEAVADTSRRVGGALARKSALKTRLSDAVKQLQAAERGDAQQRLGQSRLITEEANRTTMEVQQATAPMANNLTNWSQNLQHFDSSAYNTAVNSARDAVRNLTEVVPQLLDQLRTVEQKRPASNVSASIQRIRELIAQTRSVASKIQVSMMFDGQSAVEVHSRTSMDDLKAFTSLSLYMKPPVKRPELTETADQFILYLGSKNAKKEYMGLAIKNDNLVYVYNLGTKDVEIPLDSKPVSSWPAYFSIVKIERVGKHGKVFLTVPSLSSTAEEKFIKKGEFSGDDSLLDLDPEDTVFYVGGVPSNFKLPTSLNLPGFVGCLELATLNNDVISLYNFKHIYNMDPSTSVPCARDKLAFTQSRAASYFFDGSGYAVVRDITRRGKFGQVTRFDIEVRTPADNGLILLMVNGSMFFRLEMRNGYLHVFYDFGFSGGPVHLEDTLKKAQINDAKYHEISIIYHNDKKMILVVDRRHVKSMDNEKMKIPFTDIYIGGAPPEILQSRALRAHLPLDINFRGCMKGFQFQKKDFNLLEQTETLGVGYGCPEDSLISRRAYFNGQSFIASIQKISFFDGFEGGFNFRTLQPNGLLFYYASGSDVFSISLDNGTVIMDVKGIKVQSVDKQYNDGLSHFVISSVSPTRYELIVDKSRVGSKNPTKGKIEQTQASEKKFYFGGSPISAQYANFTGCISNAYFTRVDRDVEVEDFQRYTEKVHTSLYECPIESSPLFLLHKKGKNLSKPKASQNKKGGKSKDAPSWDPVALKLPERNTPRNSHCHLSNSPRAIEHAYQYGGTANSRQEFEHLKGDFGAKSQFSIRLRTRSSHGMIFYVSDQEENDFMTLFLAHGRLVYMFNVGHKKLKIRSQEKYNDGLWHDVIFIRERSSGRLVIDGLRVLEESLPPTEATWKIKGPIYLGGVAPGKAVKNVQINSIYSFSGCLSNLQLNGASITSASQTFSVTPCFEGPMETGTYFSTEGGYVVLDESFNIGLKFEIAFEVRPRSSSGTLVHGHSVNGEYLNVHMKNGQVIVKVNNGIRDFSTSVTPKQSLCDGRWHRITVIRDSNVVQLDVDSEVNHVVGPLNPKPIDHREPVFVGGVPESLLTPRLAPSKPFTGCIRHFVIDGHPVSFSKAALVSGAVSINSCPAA

What was measured:
[1] = target: human LAMA4 G domain LG1-5 displayed on 293 cells (pDisplay) (human) (UniProt Q16363); assay: flow cytometry on LAMA4-fragment-displaying 293 cells
[2] = target: human LAMA4 LG4-5 fragment displayed on 293 cells (pDisplay) (human) (UniProt Q16363); assay: as above
[3] = target: human LAMA4 G domain LG1-5 displayed on 293 cells (pDisplay) (human) (UniProt Q16363); assay: flow cytometry, serial dilution on LAMA4-displaying 293 cells
[4] = target: human LAMA4 G domain LG1-5 displayed on 293 cells (pDisplay) (human) (UniProt Q16363); assay: flow cytometry on 293 cells displaying LAMA4 fragments (pDisplay)
[5] = target: human LAMA4 LG4-5 fragment displayed on 293 cells (pDisplay) (human) (UniProt Q16363); assay: as above
[6] = target: human LAMA4 G domain LG1-5 displayed on 293 cells (pDisplay) (human) (UniProt Q16363); assay: flow cytometry on LAMA4-displaying 293 cells, binding antibody 13G10 in the presence of blocking antibodies (6C12, 13G10, 15F7, mouse IgG1)

Measured: binding

B1: mouse monoclonal antibody 13G10 (antibody, V domains shown)
VH: QVQLQQSGAELARPGASVKLSCKASGYTFTNYGISWVKQRTGQGLEWIGAIYPRSGNTYYNEKFKGKATLTADKSSSTAYMELRSLTSEDSAVYFCARERDYGSSYALDYWGQGTSVTVSS
VL: DIQMTQSSSSFSVSLGDRVTITCKASEDIYNRLAWYQQKPGNAPRLLISGATSLETGVPSRFTGSGSGKDYTLSITSLQTEDVATYYCQQYWSPPRTFGGGTKLEIKR
binds: all assays above
